Source: PubChem BioAssay AID1508600 (Functional Genomics Laboratory (NCATS/FGL), 2020)
Screen size: about 53,000 sequences; about 3,700 (7%) were called active.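 How the source made its calls: active means gene knockdowns whose robust z-score for IL-1 alpha signal is at least 2 or at most -2, so actives lie on both sides; inactive means the rest.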 Some of the results follow.

experiment: Components of the Cytosolic LPS Sensing Pathway: Gene Identification via Genome-wide siRNA Screen; conditions: RAW264.7 macrophages, IL-1a HTRF, actives lie on both sides, screened at 100 nM (by protocol), cells primed 5 h with Pam3CSK4 first;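 further: robust z of the log signal after scaling to non-targeting control siRNA wells of the plate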
How it was run: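 Using IL-1a HTRF as read-out, the screen measured release from RAW264.7 cells after 48h siRNA knockdown (100 nM), 5 h Pam3CSK4 priming and 24 h cytosolic LipidA. Values were expressed relative to negative-control wells as robust z-scores.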

z-score, inactive:
GGAUUGGAGGUCUUAAAACTT against Mbtps1 -0.303
GCCCGGAAGUUUGUUAAAGTT against Mtrr -1.46
GGAGAAUAUCCUCCCAGGATT against Cdca2 -0.139
GCUUGACUUUGAAAGUCCATT against Gm11733 -1.54
GGUGAUCGAGGAGAGUCUATT against Oaf -0.737
GGGCACCUAGUUUCCAUGATT against Cox7b -0.385
GGACCUAAAAAUGGUAUAUTT against Lrp1b -0.511
GGUAAUGACAACUAUAGAGTT against Tspan6 -0.26
GGAGGGAUAUGGAAACAAGTT against Zfp866 0.989
GGAACAAAUGUUCGAAAUGTT against Eif4a2 -0.0347
GGACAUGAUUUUAUGCUUCTT against Zkscan17 0.446
CCGUGAAAAAAUUAAACAGTT against Slk 0.338
GGAUUCUCACCAAAUACUUTT against Oprd1 0.305
UCCGUUGGAGUAUCGAUGUTT against Trp53rka -1.25
GGAGCAGAUGCUAACUGUGTT against Zscan2 1.37
GGAAGAUGAAUCAUUACCATT against Mmgt1 -1.35
CCGACGAUUCCUGAAGCUATT against Tada3 -0.275
GGUCGUCCCUCUUUAUGGGTT against Rnf5 1.56
GGCAAAAAACUGAGAAGAATT against Zfp148 -1.4
GGGUCCUCCCUUUUAAGAGTT against 1700123L14Rik 0.415
GGAGGUGUUAGAUUUUGACTT against Asrgl1 -0.295
GGAAAUGGAUUUCUUAUGGTT against Cutc -0.0561
CCCGAUCUAUUGCACAAAUTT against Nxt2 -1.29
GGCCCAAUGAUUACAACAUTT against Vmn1r231 0.612
CCAACCUAAACCAUGUACATT against Erich5 -0.515
GGCCUGGAUGAAUGAAAAGTT against Gins4 0.665
CCGGAGCUUACUGGUGACATT against Ccdc116 0.539
GGAAGUGGUCCACCUGAUCTT against Mms19 -0.324
AUAUAACAGUGCCCAGCCUTT against Olfr885 1.25
GGUCUUUCAUCUGACCAGCTT against Slc10a1 0.219
GGAGAAAGGUUUUGUUAUGTT against Gtf2h2 1.5
GGCAUAAAAAAGUAAAUGGTT against Slc41a2 1.24
GGAGAGAAGAAAAAGAAGGTT against Rrbp1 0.647
CCUGGAAAUAUCAAAUUUCTT against Olfr850 -0.414
GCGAAAAUAUUUUCCGGGCTT against Itga2 0.99
GCCAAACGAACAACAAAACTT against Chrm3 -0.166
GCAGUACACUUCCAUAUGGTT against Prlr 0.334
GGAUGGUGCUGUAAAGAAATT against Utp3 -0.013
GCGUGCAGUGUCGUGAAAGTT against D430018E03Rik -0.639
GGUACAUUAACCCUAAAGATT against 4930550C14Rik 1.04
GGACAAGGAAAAGUCUUUATT against Cep97 0.894
GGGAAUAGCAAAUAAAGCATT against Lztr1 -0.674
GGUACUCACCGGAUACCAATT against Olfr512 0.214
GCUUUAUAAAGUGGGUAGATT against Bub1 0.414
CCAAGCUUAUUGACAAUGATT against Spta1 0.213
GGAGGAACCCUCAUUUUAGTT against Prxl2c -0.897
GCUACAGUUUGUGGGUGACTT against Zmynd15 0.11

A stretch of the results above:
z-score, inactive:
GGAGGAACCCUCAUUUUAGTT against Prxl2c -0.897
GCUACAGUUUGUGGGUGACTT against Zmynd15 0.11

Following part:

z-score, active:
GGCCUACGAGAGGCAAAAATT against Hnf1a -2.05
CCUAGGUGUCACCAUGAACTT against Ssx9 2.02
GGCUGAUCCAUUUUCACAATT against Adam6a -2.77
GCGACUGUACAACGAAUUGTT against Clp1 3.34
GCCACAUCGUAGACAAGUATT against Zfp41 -2.71
GGGUUUGUGGGAUACAAUCTT against Smarce1 2.97

Random excerpt: 3 records from the list.
z-score, active:
GCCACAUCGUAGACAAGUATT against Zfp41 -2.71
CCUAGGUGUCACCAUGAACTT against Ssx9 2.02
GGCCUACGAGAGGCAAAAATT against Hnf1a -2.05
